Measured values reported in publication doi:10.1101/2022.02.08.479506.
No constants are given. Whether binding was seen depends on the method and setting. Some binding calls cover weakened binding; strength is not graded here.

Protein sequences, listed by entry. Tags and fused reporters are not part of them. Residues count along the entry.
UniProt P09382, residues 2-135: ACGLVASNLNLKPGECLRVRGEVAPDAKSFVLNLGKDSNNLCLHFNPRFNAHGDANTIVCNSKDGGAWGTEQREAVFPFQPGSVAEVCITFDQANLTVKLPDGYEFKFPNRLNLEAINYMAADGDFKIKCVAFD

Columns and labels:
[1] = molecular target: Galectin-1 (UniProt P09382); assay: NMR titration
[2] = molecular target: Galectin-1 (UniProt P09382); assay: NMR 15N relaxation
[3] = molecular target: Galectin-1 (UniProt P09382); assay: NMR titration; remark: listed apart in the source

- binding [1]: binds
- binding [2]: binds
- binding [3]: binds
Binder: SRSSLRSRWGRFLLQRGSWTGPRC (peptide, UniProt P15814 59-82) [λ5 unique region peptide (residue 22-45) of the pre-B cell receptor]
